Measured values as given in PubChem BioAssay AID540276 (National Center for Advancing Translational Sciences (NCATS), 2011).
Hit rate of the full screen: of about 300,000 compounds, about 5,400 (1.8%) were called active. The inconclusive results got no clear call from the source; some entries with a clear call stand among them for comparison. The call rests on the fitted dose curve; tested in HEK293 cells. Where the call is inconclusive, the potency comes from a doubtful curve fit.

experiment: qHTS for inhibitors of binding or entry into cells for Marburg Virus; settings: Marburg virus pseudotyped entry inhibition, cell reporter; activity change, negative = inhibition: at 37.8 µM (top of the series) unless noted
On the % scale 0 is the no-effect control and ±100 the full control effect; potency means the concentration at half of the fitted maximal effect.

SMILES | activity change, negative = inhibition | Potency
Cc1cc(OCC(=O)NC2CCCCC2)ccc1Cl | inactive: -4.6% | 
Nc1nc(-c2ccc([N+](=O)[O-])cc2)cs1 |  | inconclusive: 3.55 µM [activator, partial curve, poor fit]
C=CCn1c(SCC(=O)N2CCc3ccccc3C2)nc2sc(CC)cc2c1=O |  | inconclusive: 35.5 µM [inhibitor, single point]
CC1=C(C#N)C2(O)C(=O)c3ccccc3C2(O)N1 (centres undefined) |  | inconclusive: 0.316 µM [inhibitor, partial curve, poor fit]
CC(=O)Oc1cccc(C(=O)Nc2ccc(NC(=O)c3cccs3)cc2)c1 | inactive: -22.8% | 
O=C(CCN1C(=O)/C(=C/c2ccccc2)SC1=S)NNC(=O)c1cccnc1 |  | inconclusive: 14.1 µM [inhibitor, single point]
CCOc1ccc(NC(=O)CCC(=O)N/N=C/c2ccc([N+](=O)[O-])s2)cc1 |  | inconclusive: 35.5 µM [inhibitor, single point]
COc1cccc(CN(C)CC2CCCN(CCc3ccc(Cl)cc3)C2)c1OC (centres undefined) |  | inconclusive: 22.4 µM [inhibitor, single point]
COC(=O)c1ccccc1NC(=O)Nc1ccc2c(c1)OCO2 | inactive: -2.08% | 
COc1ccc(CCNC(=O)COc2coc(CN3c4ccccc4CC3C)cc2=O)cc1OC (centres undefined) |  | inconclusive: 17.8 µM [inhibitor, partial curve, poor fit]
O=C1c2ccccc2C(=O)c2c1cccc2N(CCO)CCO | inactive: 5.95% [at 46.1 µM] | 
C=CCC(CC(O)COCCC)C(=O)NNC(=S)Nc1ccccc1 (centres undefined) |  | inconclusive: 31.6 µM [activator, single point]
CCOC(=O)CSc1nnc(NC(=O)c2cc([N+](=O)[O-])cc([N+](=O)[O-])c2)s1 | inactive: -0.689% | 
CC1C/C(=N\NC(N)=S)c2cc(Cl)ccc2S1 (centres undefined) |  | active: 12.6 µM
CCOc1ccc(CN2C(=O)c3ccccc3Sc3ccc(C(=O)NCc4ccco4)cc32)cc1 |  | inconclusive: 35.5 µM [inhibitor, single point]
CCOC(=O)N1CCN(CC(O)COCc2ccccc2)CC1 (centres undefined) | inactive: 3.23% | 
CCn1c(SCC(=O)c2ccc3ccccc3c2)nnc1-c1ccco1 |  | inconclusive: 0.0041 µM [activator, full curve, poor fit]
CCCn1c(SCC(=O)Nc2nc(C)c(C(=O)OC)s2)nnc1C(C)C |  | inconclusive: 35.5 µM [activator, single point]
O=C(COc1ccc(Br)cc1Br)NC(=S)Nc1cccc(CO)c1 |  | inconclusive: 13 µM [inhibitor, partial curve, poor fit]
Cc1oc(-c2cccc(Cl)c2)nc1CN1CCC(C(=O)NC(C)c2ccccc2)CC1 (centres undefined) | inactive: 8.33% [at 46.1 µM] | 
Cc1cc(C(=O)N/N=C/c2c(C)nn(-c3ccccc3)c2C)c(C)o1 |  | inconclusive: 31.6 µM [activator, single point]
COCCNc1nc2c(c(=O)n(C)c(=O)n2C)n1Cc1c(F)cccc1Cl |  | inconclusive: 35.5 µM [inhibitor, single point]
CC(C)(C)S(=O)(=O)/C(C#N)=N/Nc1ccc(S(N)(=O)=O)cc1 |  | inconclusive: 11.2 µM [inhibitor, single point]

Three entries out of the list, sorted by molecular weight, largest number first:
SMILES | activity change, negative = inhibition | Potency
Cc1oc(-c2cccc(Cl)c2)nc1CN1CCC(C(=O)NC(C)c2ccccc2)CC1 (centres undefined) | inactive: 8.33% [at 46.1 µM] | 
CCOC(=O)N1CCN(CC(O)COCc2ccccc2)CC1 (centres undefined) | inactive: 3.23% | 
CC1=C(C#N)C2(O)C(=O)c3ccccc3C2(O)N1 (centres undefined) |  | inconclusive: 0.316 µM [inhibitor, partial curve, poor fit]

(next part)

SMILES | activity change, negative = inhibition | Potency
Cc1cc(C)cc(N(CCC#N)C(=O)CN2C(=O)NC3(CCCC3)C2=O)c1 |  | inconclusive: 32.6 µM [activator, partial curve, poor fit]
COc1cccc(C2/C(=C(/O)c3cnn(-c4ccccc4)c3C)C(=O)C(=O)N2CCN(C)C)c1 (centres undefined) |  | inactive
CCN(C(=O)CN1CCN(S(=O)(=O)c2cc(Cl)ccc2Cl)CC1)c1c(N)n(Cc2ccccc2)c(=O)[nH]c1=O |  | inconclusive: 22.4 µM [activator, single point]
CCCCCOC(=O)CSc1nc2c(c(=O)[nH]c(=O)n2C)n1Cc1ccc(Cl)cc1 |  | inactive
O=Cc1c[nH]c2ccc(NC(=O)OCc3ccccc3)cc12 |  | active: 12.6 µM
COc1cccc(N2C(=O)CN(Cc3cc(OC)c(OC)c(OC)c3)C2=S)c1 | inactive: -23.3% [at 46.1 µM] | 
CCCOc1ccc(C2c3c(oc4ccccc4c3=O)C(=O)N2CCN(CC)CC)cc1OC (centres undefined) |  | inconclusive: 0.708 µM [activator, full curve]
COc1ccc(N=C2C(=O)N3c4c(cccc42)C(C)=CC3(C)C)cc1 |  | inconclusive: 28.2 µM [inhibitor, single point]
CC(=O)Nc1ccc(NC(=O)C(C)OC(=O)c2cccc(S(=O)(=O)N3CCCC3)c2)cc1 (centres undefined) | inactive: 10.3% | 
O=C(CSc1ncn[nH]1)c1cc2ccccc2o1 |  | inconclusive: 22.4 µM [inhibitor, partial curve, poor fit]
N#Cc1cccc(Cn2nnc(-c3ccccc3)n2)c1 |  | inconclusive: 4.47 µM [activator, full curve, poor fit]
Nc1nc(SCC(=O)c2cccc([N+](=O)[O-])c2)n[nH]1 | inactive: 6.27% | 
CCN(CC)C(=O)NC1CC2CCCC(C1)N2Cc1ccccc1 (centres undefined) |  | inconclusive: 0.13 µM [inhibitor, full curve, poor fit]
CCOC(=O)C(C(=O)NCCCN1CCOCC1)C1CCCCC1 (centres undefined) | inactive: -2.55% | 
CC1CCCC(NC(=S)NC(=O)c2cncc(Br)c2)C1C (centres undefined) | inactive: 5.83% | 
O=C(c1ccco1)N1CCN(C2CCCC2)CC1 |  | inconclusive: 35.5 µM [activator, single point]
COc1ccccc1-c1c(C)oc2c(CN3CCCCC3C)c(O)ccc2c1=O (centres undefined) | inactive: 1.02% | 
C=CCN1c2ccccc2[C@]23C[C@@H](C(=O)OC)N(C(=O)CC(C)C)C2=NC(C(=O)OC)=C(C(=O)OC)[C@H]13 |  | inconclusive: 2.37 µM [activator, single point]
COc1ccc(-c2cc(C(F)(F)F)nc(SCCC(=O)Nc3ccc(NC(C)=O)cc3)n2)cc1 | inactive: -0.374% [at 46.1 µM] | 
Cc1ccc(NC(=O)C2CCN(S(=O)(=O)c3ccc4c(c3)CC(C)N4C(=O)C3CCC3)CC2)nc1 (centres undefined) |  | inconclusive: 10 µM [inhibitor, partial curve, poor fit]
CSCCC(NC(=O)c1ccco1)C(=O)NCCc1ccc(Cl)cc1 (centres undefined) | inactive: 8.37% | 
CCNc1nc(Oc2ccc(C#N)cc2)cc(C(F)(F)F)n1 |  | inconclusive: 7.94 µM [inhibitor, partial curve, poor fit]
Cc1ccc(C2=N/C(=C/N3CCOCC3)C(=O)O2)cc1 | inactive: 25% | 

SMILES | activity change, negative = inhibition | Potency
Cc1ccc(Cl)cc1N1CCN(Cc2nc3c(c(=O)[nH]c(=O)n3C)n2CCc2ccccc2)CC1 |  | inconclusive: 3.98 µM [inhibitor, full curve]
CCOCCCN1C(=O)CN(C2CCCCC2)C(=O)C1c1ccc(OC)c(OC)c1 (centres undefined) | inactive: 0.247% | 
CC(C(=O)Nc1cccc([N+](=O)[O-])c1)N1CCN(C/C=C/c2ccccc2)CC1 (centres undefined) |  | inconclusive: 15.8 µM [inhibitor, single point]
NC(=O)c1cc(S(=O)(=O)N2CCCC2)ccc1OCCOc1ccccc1F |  | inconclusive: 3.55 µM [inhibitor, partial curve, poor fit]
Cc1ccccc1-c1nc(CN2CCC(C(=O)NCCCN3CC(C)CC(C)C3)CC2)c(C)o1 (centres undefined) |  | inconclusive: 5.17 µM [inhibitor, full curve, poor fit]
Cc1ccc(C)c(C(=O)CSc2nnnn2C(C)C)c1 | inactive: -0.978% | 
CN(C)C1(CNC(=O)Nc2ccccc2)CCCCC1 | inactive: 7.95% [at 46.1 µM] | 
Cc1cc(NC(=O)c2ccc3c(c2)N(Cc2cccc(Cl)c2)C(=O)c2ccccc2S3(=O)=O)ccc1Br |  | inconclusive: 2 µM [inhibitor, full curve]
Cc1cc(C)c2c(NC(=O)CCl)nn(C)c2n1 |  | inconclusive: 10 µM [inhibitor, partial curve, poor fit]
C=CCn1c(=O)c2ccc(C(=O)NCc3ccccc3)cc2n(Cc2ccc(Cl)cc2)c1=O |  | inconclusive: 11.2 µM [inhibitor, partial curve, poor fit]
Cc1nn(-c2ccccc2)c(OC(=O)c2ccccc2Br)c1S(=O)(=O)c1ccccc1 | inactive: -9.39% [at 46.1 µM] | 
CC(Sc1nc(-c2ccccc2)cc(C(F)(F)F)n1)C(=O)N1CCC(C(N)=O)CC1 (centres undefined) |  | inconclusive: 18.3 µM [activator, single point]
Cc1cc(F)ccc1O[C@H]1C=C[C@@H](c2ccc3c(c2)OCO3)O[C@H]1CO | inactive: 14.2% [at 14.2 µM] | 
N#Cc1nc(-c2ccccc2)oc1NCC1CCCO1 (centres undefined) | inactive: -2.86% | 
CCCCOc1ccc(NC(=O)c2cc(F)c(F)cc2Cl)cc1 |  | inconclusive: 14.1 µM [activator, single point]
COc1cc(OC)c(/C=N/NC(=O)c2ccncc2)cc1Br |  | inconclusive: 1.26 µM [inhibitor, partial curve, poor fit]
CCNc1nc(NCC)nc(N/N=C/c2ccc([N+](=O)[O-])o2)n1 |  | inconclusive: 0.112 µM [activator, full curve, poor fit]
O=C(Nc1ccc(O)c(-c2nc3ccccc3o2)c1)C1(c2ccc(Cl)cc2)CCCC1 |  | inconclusive: 11.2 µM [inhibitor, partial curve, poor fit]
O=C(CSc1nnc(COc2ccccc2)o1)NC1CC2CCC1C2 (centres undefined) |  | inconclusive: 2.82 µM [activator, single point]
O=C(NCC1CCCO1)C(c1cccs1)N(Cc1ccccc1)C(=O)c1ccc(-c2ccccc2)[nH]1 (centres undefined) |  | inconclusive: 0.1 µM [activator, full curve, poor fit]
CCc1ccccc1NC(=O)CCCSc1nc(-c2ccco2)cc(C(F)(F)F)n1 |  | inconclusive: 8.91 µM [activator, partial curve]
COc1ccc(NC(=O)C2=CC(c3ccco3)=NS(=O)(=O)N2C)cc1OC | inactive: 3.46% [at 46.1 µM] | 
CCN(CC)S(=O)(=O)c1ccc(C)c(NC(=S)N2CCN(Cc3ccc4c(c3)OCO4)CC2)c1 |  | inconclusive: 17.8 µM [inhibitor, partial curve, poor fit]
